The results in this text go back to article PMC9371921.

For this series, the system named is RAD51B + RAD51C + RAD51D + XRCC2. Put plainly: EMSA. The settings on record: 1 mM ATP, 1 mM Mg acetate, EMSA: 1 nM DNA, 20 mM Tris-acetate pH 7.5, 1 mM DTT, 1 mM magnesium acetate, 0.1 mg/ml BSA, 30 min at 37 C, 6% PAGE in 1x TBE at 4 C, recombinant protein, protein details: FLAG,10xHis,none,none, label: 5'-32P on PC210. (Mobility shift assays separate free from complexed probe on a gel.)

For at least one entry, the source does not settle the construct or the ends of the probe. A weaker result is weaker than the reference pair of the same experiment.

Consider “GTAAGTGCCGCGGTGCGGGTGCCAGGGCGTGCCCTTGGGCTCCCCGGGCGCGTACTCCACCTCATGCATC (double strand) [70-mer dsDNA (PC210/PC211)]”, for which the binding result is given as “binds more weakly”.
